The list shows a part of the results.
Experiments:
Assay in all cases: log2 fold change, soluble protein after heating vs DMSO (PISA); higher = thermal stabilisation; K562 cells, 10 uM, 30 min; active = over 0.2 and 3.5 SD of the protein, either way, in both replicates (recomputed)
[1] = compound: Cc1ccc(NC(=O)c2ccc(CN3CC[C@H](N(C)C)C3)c(C(F)(F)F)c2)cc1Nc1nccc(-c2cncnc2)n1 [bafetinib]
Procedure, shortened: (§1)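 For each measurement, 10 μM compound was applied for 30 min to K562 cells at 2×10^6 cells/mL. Aliquots were heated for 3 min across 48°C-58°C, pooled, and extracted in PBS with 0.5% NP-40 at 4°C; the supernatant after 21,000xg for 90 min was soluble protein. This was quantified by TMTpro 16plex LC-MS/MS with channel sums equalised, and thermal stability was reported relative to control samples from duplicates, on a log2 fold-change scale.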

Protein sequences, listed by entry. Tags and fused reporters are not part of them. Lines headed by an entry give the natural chain unless they say otherwise; changes in a name come on top.
UniProt Q15428: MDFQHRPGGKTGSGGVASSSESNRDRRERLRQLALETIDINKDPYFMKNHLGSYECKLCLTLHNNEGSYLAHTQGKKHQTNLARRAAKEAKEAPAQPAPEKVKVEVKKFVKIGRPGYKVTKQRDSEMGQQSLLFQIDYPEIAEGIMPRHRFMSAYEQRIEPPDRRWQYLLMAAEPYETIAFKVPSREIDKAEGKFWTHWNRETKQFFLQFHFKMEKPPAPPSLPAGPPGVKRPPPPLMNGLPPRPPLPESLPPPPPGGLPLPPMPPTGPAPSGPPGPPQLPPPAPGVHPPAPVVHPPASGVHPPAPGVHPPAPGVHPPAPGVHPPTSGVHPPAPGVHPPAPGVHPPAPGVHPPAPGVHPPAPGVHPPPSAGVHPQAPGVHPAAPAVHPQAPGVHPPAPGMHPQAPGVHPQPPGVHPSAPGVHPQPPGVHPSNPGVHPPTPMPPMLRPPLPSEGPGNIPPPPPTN
UniProt O60613, whole entry, looked up: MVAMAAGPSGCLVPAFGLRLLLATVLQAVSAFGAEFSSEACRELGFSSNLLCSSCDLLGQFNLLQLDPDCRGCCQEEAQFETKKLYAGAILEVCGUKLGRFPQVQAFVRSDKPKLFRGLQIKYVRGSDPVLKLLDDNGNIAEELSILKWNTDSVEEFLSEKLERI
UniProt Q9UGK8: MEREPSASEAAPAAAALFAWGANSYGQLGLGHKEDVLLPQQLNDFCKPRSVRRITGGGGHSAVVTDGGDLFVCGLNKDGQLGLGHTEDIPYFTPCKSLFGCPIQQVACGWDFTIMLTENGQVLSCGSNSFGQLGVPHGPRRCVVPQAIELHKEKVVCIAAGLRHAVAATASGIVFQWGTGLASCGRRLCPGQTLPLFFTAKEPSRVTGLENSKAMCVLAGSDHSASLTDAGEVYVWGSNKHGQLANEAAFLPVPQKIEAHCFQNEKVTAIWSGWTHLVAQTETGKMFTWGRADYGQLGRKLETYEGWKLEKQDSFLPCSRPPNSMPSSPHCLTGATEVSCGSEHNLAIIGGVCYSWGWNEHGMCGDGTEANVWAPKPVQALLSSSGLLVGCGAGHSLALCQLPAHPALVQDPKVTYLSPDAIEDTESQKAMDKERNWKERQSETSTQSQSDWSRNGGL
UniProt P49903: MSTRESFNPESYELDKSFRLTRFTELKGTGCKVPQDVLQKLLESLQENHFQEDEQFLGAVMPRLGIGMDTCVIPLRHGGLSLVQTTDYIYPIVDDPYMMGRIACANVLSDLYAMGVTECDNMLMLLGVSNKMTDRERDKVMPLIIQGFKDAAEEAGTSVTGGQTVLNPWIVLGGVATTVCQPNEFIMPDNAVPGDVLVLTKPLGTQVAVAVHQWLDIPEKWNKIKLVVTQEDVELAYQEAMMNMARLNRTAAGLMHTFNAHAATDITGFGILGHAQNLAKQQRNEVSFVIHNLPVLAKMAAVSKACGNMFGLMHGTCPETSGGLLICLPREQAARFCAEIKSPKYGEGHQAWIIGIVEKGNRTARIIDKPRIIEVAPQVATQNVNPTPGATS
UniProt Q8IXJ6: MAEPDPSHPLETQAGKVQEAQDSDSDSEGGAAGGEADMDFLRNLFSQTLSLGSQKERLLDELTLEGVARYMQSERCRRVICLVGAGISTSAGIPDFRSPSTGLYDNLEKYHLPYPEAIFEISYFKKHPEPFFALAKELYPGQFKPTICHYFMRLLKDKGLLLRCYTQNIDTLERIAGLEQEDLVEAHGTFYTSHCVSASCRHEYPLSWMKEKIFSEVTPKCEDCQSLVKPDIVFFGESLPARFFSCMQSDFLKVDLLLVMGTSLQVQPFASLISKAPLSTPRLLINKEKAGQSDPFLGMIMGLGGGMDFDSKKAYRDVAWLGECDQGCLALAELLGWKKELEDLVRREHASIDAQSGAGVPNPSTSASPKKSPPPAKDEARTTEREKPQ
UniProt Q92599: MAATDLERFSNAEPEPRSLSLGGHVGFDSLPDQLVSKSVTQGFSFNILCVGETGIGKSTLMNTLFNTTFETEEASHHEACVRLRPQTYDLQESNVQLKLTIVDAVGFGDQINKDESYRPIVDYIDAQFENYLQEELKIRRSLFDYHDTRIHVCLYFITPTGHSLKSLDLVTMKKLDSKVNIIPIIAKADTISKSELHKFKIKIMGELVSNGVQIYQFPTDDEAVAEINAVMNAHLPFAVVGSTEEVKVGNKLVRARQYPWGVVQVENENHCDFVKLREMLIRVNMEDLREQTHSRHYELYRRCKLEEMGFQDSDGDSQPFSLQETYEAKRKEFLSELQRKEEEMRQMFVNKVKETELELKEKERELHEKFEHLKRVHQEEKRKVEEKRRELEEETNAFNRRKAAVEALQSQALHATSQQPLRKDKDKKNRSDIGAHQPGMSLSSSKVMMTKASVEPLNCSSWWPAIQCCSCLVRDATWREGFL
UniProt Q96ST3: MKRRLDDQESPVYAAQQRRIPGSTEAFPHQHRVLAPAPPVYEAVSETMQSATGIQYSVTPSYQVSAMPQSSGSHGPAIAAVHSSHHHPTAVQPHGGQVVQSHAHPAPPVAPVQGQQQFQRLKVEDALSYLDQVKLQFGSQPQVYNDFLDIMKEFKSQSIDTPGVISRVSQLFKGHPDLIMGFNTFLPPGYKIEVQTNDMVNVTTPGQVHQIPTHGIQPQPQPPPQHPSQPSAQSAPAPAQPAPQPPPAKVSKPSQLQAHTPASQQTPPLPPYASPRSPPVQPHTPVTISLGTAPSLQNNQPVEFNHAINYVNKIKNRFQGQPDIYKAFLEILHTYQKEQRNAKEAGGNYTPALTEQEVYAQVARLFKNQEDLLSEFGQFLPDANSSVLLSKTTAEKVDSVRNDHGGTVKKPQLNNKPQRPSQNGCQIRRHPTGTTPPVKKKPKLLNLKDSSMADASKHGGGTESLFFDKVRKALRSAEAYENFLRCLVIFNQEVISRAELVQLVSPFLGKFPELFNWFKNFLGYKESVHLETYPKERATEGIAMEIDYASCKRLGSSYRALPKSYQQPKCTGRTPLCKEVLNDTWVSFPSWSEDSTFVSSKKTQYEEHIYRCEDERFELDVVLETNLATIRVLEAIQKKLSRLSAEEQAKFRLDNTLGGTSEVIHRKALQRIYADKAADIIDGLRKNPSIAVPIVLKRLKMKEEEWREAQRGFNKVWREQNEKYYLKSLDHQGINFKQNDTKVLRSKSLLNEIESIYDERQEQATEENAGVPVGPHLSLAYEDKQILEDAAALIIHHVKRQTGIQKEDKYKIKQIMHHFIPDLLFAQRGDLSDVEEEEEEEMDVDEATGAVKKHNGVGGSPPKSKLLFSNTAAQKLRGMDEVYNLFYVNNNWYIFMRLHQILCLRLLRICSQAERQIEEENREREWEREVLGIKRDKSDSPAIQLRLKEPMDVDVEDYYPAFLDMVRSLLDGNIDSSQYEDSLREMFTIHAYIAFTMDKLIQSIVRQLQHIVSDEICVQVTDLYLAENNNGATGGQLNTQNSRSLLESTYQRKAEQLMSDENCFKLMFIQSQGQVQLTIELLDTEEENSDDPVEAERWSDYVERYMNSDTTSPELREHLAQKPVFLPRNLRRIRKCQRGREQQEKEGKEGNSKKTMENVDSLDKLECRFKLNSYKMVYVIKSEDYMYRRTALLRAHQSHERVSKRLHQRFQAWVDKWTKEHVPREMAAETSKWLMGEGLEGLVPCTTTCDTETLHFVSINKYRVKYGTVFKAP
UniProt Q9Y3L3: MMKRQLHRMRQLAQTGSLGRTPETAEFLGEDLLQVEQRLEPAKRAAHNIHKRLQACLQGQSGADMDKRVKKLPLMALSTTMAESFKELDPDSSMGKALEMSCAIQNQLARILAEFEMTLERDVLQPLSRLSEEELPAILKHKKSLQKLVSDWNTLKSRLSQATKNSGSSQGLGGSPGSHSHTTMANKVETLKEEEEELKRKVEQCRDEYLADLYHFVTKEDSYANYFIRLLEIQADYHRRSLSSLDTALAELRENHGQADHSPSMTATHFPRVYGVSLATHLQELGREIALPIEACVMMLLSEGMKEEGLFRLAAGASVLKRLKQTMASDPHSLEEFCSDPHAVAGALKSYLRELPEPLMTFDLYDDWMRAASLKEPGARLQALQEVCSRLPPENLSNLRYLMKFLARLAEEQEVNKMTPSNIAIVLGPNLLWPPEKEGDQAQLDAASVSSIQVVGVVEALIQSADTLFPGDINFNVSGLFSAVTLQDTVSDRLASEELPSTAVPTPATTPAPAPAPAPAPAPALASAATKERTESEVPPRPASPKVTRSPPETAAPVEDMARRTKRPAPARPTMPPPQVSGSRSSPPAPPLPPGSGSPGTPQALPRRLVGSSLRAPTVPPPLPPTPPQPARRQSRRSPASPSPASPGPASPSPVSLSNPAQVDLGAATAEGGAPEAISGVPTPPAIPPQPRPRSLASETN
UniProt P50453: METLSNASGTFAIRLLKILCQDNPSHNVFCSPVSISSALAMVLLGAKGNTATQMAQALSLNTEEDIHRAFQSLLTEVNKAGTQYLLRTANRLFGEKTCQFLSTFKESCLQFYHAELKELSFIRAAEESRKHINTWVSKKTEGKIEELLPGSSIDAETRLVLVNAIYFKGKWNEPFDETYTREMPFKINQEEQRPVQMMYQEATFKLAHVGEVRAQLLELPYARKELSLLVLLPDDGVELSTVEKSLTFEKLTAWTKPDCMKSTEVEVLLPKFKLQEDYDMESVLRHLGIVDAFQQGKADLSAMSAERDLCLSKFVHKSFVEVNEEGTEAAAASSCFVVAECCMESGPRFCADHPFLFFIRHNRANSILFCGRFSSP
UniProt Q9HAT2: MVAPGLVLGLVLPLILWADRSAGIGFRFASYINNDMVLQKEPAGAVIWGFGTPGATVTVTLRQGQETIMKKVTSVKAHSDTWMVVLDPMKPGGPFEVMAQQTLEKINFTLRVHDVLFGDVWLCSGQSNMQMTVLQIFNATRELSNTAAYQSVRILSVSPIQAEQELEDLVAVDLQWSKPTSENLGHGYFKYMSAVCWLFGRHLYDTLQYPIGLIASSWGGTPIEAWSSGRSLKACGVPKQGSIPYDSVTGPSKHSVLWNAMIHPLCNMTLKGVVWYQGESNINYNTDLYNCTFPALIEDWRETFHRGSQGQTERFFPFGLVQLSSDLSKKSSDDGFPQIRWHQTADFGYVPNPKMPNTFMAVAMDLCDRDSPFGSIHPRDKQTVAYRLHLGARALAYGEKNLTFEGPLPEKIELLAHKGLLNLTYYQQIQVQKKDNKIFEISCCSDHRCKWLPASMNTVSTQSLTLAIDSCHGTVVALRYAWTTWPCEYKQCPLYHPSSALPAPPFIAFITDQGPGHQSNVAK
UniProt Q9H9B4: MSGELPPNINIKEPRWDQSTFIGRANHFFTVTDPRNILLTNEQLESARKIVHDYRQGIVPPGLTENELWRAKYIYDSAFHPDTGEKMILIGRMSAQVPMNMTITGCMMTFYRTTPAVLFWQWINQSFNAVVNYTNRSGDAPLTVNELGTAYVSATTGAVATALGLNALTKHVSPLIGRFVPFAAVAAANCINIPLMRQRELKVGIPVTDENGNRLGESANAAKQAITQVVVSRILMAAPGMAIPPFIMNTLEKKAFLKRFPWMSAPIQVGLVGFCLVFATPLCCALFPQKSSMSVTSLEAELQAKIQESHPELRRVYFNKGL
UniProt Q9UJC5: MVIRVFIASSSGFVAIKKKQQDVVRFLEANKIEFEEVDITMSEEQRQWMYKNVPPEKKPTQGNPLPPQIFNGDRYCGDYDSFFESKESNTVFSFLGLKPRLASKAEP
UniProt P60468, whole entry, looked up: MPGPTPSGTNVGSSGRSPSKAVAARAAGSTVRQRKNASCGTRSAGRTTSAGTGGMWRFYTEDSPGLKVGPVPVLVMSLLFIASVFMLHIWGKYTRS
UniProt P36955: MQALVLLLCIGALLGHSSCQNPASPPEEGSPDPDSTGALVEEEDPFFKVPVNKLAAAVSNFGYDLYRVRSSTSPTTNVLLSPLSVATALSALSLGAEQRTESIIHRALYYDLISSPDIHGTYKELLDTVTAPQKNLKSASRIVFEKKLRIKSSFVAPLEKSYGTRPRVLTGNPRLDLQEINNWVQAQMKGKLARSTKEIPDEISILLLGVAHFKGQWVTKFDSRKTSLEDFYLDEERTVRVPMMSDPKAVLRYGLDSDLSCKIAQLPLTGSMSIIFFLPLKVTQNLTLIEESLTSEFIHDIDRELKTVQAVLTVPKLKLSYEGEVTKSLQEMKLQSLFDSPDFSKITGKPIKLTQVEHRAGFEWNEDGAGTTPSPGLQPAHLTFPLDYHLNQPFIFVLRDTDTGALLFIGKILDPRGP
UniProt O43765: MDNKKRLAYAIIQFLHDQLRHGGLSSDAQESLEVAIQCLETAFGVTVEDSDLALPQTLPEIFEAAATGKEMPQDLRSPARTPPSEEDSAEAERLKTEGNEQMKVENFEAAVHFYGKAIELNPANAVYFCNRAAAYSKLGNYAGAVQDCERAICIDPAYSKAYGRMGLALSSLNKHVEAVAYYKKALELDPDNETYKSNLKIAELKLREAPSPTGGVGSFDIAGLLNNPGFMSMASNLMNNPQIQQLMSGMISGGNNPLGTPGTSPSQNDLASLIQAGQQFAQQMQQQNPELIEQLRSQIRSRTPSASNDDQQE

[2] = compound: Cc1cccc(CC(=O)N2CCc3c2ccc(-c2cn(C)c4ncnc(N)c24)c3F)n1
Procedure, shortened: as §1

[3] = compound: Cc1cn(-c2cc(NC(=O)c3ccc(C)c(Nc4nccc(-c5cccnc5)n4)c3)cc(C(F)(F)F)c2)cn1 [nilotinib]
Procedure, shortened: as §1

[4] = compound: Cc1nc(Nc2n[nH]c3c2CN(C(=O)N[C@H](CN(C)C)c2ccccc2)C3(C)C)c2sccc2n1
Procedure, shortened: as §1

[5] = compound: Cc1nc(Nc2ncc(C(=O)Nc3c(C)cccc3Cl)s2)cc(N2CCN(CCO)CC2)n1 [dasatinib]
Procedure, shortened: as §1

[6] = compound: Cc1ncc(-c2ccnc(Nc3ccc(S(C)(=O)=O)cc3)n2)n1C(C)C
Procedure, shortened: as §1

[7] = compound: Cn1cc(-c2ccc3c(c2)CCN3C(=O)Cc2cccc(C(F)(F)F)c2)c2c(N)ncnc21
Procedure, shortened: as §1

[8] = compound: Cn1cc(-c2ccc3nnc(C(F)(F)c4ccc5ncccc5c4)n3n2)cn1
Procedure, shortened: as §1

[9] = compound: Cn1cncc1[C@@](N)(c1ccc(Cl)cc1)c1ccc2c(c1)c(-c1cccc(Cl)c1)cc(=O)n2C [tipifarnib]
Procedure, shortened: as §1

[10] = compound: FC(F)(F)c1ccc(/C=C/c2nc(COc3ccc(CCCCn4ccnn4)cc3)co2)cc1 [mubritinib]
Procedure, shortened: as §1

Measured: log2 fold change

SF3A2 (UniProt Q15428)
inactive: [1] 0.023 | [2] -0.016 | [3] 0.007 | [4] -0.047 | [5] 0.012 | [6] 0.023 | [7] -0.074 | [8] -0.117 | [9] -0.044 | [10] 0.04

SHCBP1 (UniProt Q8NEM2)
inactive: [1] -0.017 | [2] 0.041 | [3] -0.207 | [5] -0.091 | [6] 0.003 | [7] 0.223 | [8] 0.004 | [9] 0.299 | [10] 0.1
active: [4] -0.459

SELENOF (UniProt O60613)
inactive: [1] 0.002 | [2] -0.034 | [3] 0.031 | [4] 0.049 | [5] 0.013 | [6] -0.052 | [7] -0.004 | [8] 0 | [9] 0.022 | [10] -0.017

SERGEF (UniProt Q9UGK8)
inactive: [1] 0.027 | [2] 0.073 | [3] -0.037 | [4] 0.028 | [5] -0.035 | [6] -0.049 | [7] 0.111 | [8] 0.058 | [9] -0.013 | [10] 0.062

SEPHS1 (UniProt P49903)
inactive: [1] -0.01 | [2] -0.008 | [3] 0.031 | [4] 0.016 | [5] -0.005 | [6] 0.006 | [7] 0.054 | [8] 0.018 | [9] -0.052 | [10] 0.014

SFN (UniProt P31947)
inactive: [1] 0.019 | [2] -0.035 | [3] -0.013 | [4] 0.012 | [5] 0.018 | [6] -0.013 | [7] 0.021 | [8] -0.012 | [9] 0.086 | [10] -0.045

SEC61A2 (UniProt Q9H9S3)
inactive: [1] -0.009 | [2] 0.013 | [3] -0.029 | [4] -0.006 | [5] 0.068 | [6] -0.016 | [7] 0.022 | [8] -0.018 | [9] 0.031 | [10] 0.004

SFSWAP isoform 2 (UniProt Q12872)
inactive: [1] 0.139 | [2] 0.007 | [3] -0.022 | [4] -0.267 | [5] 0.051 | [6] -0.068 | [7] -0.013 | [8] -0.026 | [9] 0.104 | [10] -0.048

SIRT2 (UniProt Q8IXJ6)
inactive: [1] -0.041 | [2] -0.003 | [3] 0.061 | [4] -0.006 | [5] -0.032 | [6] -0.051 | [7] 0.104 | [8] -0.002 | [9] 0.027 | [10] 0.067

SEPTIN8 (UniProt Q92599)
inactive: [1] -0.009 | [2] -0.022 | [3] -0.009 | [4] 0.019 | [5] -0.001 | [6] 0.001 | [7] 0.032 | [8] 0.024 | [9] -0.026 | [10] 0.027

SIN3A (UniProt Q96ST3)
inactive: [1] 0.054 | [2] 0.047 | [3] -0.002 | [4] -0.059 | [5] 0.016 | [6] -0.006 | [7] 0.011 | [8] -0.093 | [9] -0.016 | [10] -0.001

SETMAR (UniProt Q53H47)
inactive: [1] 0 | [2] -0.07 | [3] -0.104 | [4] 0.117 | [5] -0.013 | [6] 0.163 | [7] 0.028 | [8] 0.127 | [9] 0.054 | [10] 0.04

SH3BP1 (UniProt Q9Y3L3)
inactive: [1] -0.004 | [2] -0.015 | [3] 0.024 | [4] -0.049 | [5] -0.06 | [6] -0.007 | [7] 0.027 | [8] -0.024 | [9] -0.028 | [10] 0.088

SLAIN2 (UniProt Q9P270)
inactive: [1] 0.106 | [2] 0.057 | [3] 0.023 | [4] -0.026 | [5] 0.124 | [6] -0.185 | [7] -0.004 | [8] -0.051 | [9] 0.037 | [10] -0.017

SERPINB9 (UniProt P50453)
inactive: [1] -0.02 | [2] 0.004 | [3] 0.037 | [4] -0.009 | [5] 0.014 | [6] 0.013 | [7] 0.043 | [8] 0.012 | [9] -0.043 | [10] 0.012

SIAE (UniProt Q9HAT2)
inactive: [1] -0.026 | [2] -0.056 | [3] -0.113 | [4] -0.026 | [5] 0.199 | [6] -0.069 | [7] -0.023 | [8] 0.111 | [9] 0.094

SFXN5 (UniProt Q8TD22)
inactive: [2] 0.017 | [3] -0.052 | [4] 0.049 | [5] 0.084 | [6] 0.134 | [7] 0.107 | [8] 0.093 | [9] 0.022 | [10] 0.041
active: [1] -0.3

SFXN1 (UniProt Q9H9B4)
inactive: [1] -0.082 | [2] 0.061 | [3] -0.034 | [4] 0.001 | [5] 0 | [6] -0.027 | [7] 0.111 | [8] 0.028 | [9] -0.053 | [10] 0.028

SEH1L isoform 1 (UniProt Q96EE3)
inactive: [1] -0.083 | [2] 0.051 | [3] 0.012 | [4] -0.081 | [5] -0.008 | [6] -0.028 | [7] 0.015 | [8] -0.037 | [9] -0.11 | [10] 0.031

2 neighbouring records from above, for reference:
SERPINB9 (UniProt P50453)
inactive: [1] -0.02 | [2] 0.004 | [3] 0.037 | [4] -0.009 | [5] 0.014 | [6] 0.013 | [7] 0.043 | [8] 0.012 | [9] -0.043 | [10] 0.012

SIAE (UniProt Q9HAT2)
inactive: [1] -0.026 | [2] -0.056 | [3] -0.113 | [4] -0.026 | [5] 0.199 | [6] -0.069 | [7] -0.023 | [8] 0.111 | [9] 0.094

(further entries)

SET isoform 2 (UniProt Q01105)
inactive: [1] -0.024 | [2] -0.036 | [3] 0.002 | [4] 0.001 | [5] -0.012 | [6] 0.004 | [7] 0.022 | [8] -0.048 | [9] 0.019 | [10] 0.049

SH3BGRL2 (UniProt Q9UJC5)
inactive: [1] -0.022 | [2] -0.11 | [3] 0.083 | [4] 0.01 | [5] 0.018 | [6] 0.021 | [7] 0.006 | [8] -0.052 | [9] -0.05 | [10] 0.007

SHOC2 (UniProt Q9UQ13)
inactive: [1] -0.042 | [2] -0.01 | [3] -0.073 | [4] 0.016 | [5] -0.044 | [6] -0.028 | [7] 0.121 | [8] -0.064 | [9] -0.008 | [10] 0.069

SEC61B (UniProt P60468)
inactive: [1] -0.102 | [2] -0.045 | [3] 0.021 | [4] 0.012 | [5] 0.039 | [6] -0.046 | [7] -0.011 | [8] -0.016 | [9] 0.148 | [10] 0.029

SEC61A1 (UniProt P61619)
inactive: [1] 0.002 | [2] -0.012 | [3] -0.022 | [4] 0.054 | [5] -0.046 | [6] -0.054 | [7] 0.041 | [8] -0.034 | [9] -0.037 | [10] -0.013

SEPSECS (UniProt Q9HD40)
inactive: [1] 0.015 | [2] -0.036 | [3] -0.052 | [4] 0.01 | [5] 0.04 | [6] -0.031 | [7] 0.016 | [8] -0.011 | [9] -0.03 | [10] 0.013

SEPTIN9 (UniProt Q9UHD8)
inactive: [1] -0.045 | [2] 0.005 | [3] -0.025 | [4] -0.005 | [5] -0.004 | [6] -0.026 | [7] 0.034 | [8] 0.019 | [9] 0.008 | [10] 0.019

SF1 isoform 5 (UniProt Q15637)
inactive: [1] -0.055 | [2] -0.013 | [3] 0.017 | [4] -0.001 | [5] 0.063 | [6] -0.021 | [7] 0.019 | [8] 0.012 | [9] -0.027 | [10] 0.005

SH3BP5 (UniProt O60239)
inactive: [1] -0.053 | [2] 0.013 | [3] 0.004 | [4] -0.113 | [5] -0.132 | [6] 0.017 | [7] -0.005 | [8] -0.008 | [9] -0.086 | [10] -0.001

SERPINF1 (UniProt P36955)
inactive: [1] -0.083 | [2] -0.02 | [3] 0.065 | [4] -0.048 | [5] 0.074 | [6] 0.102 | [7] 0.118 | [8] -0.086 | [9] 0.052 | [10] -0.11

SGTA (UniProt O43765)
inactive: [1] -0.046 | [2] 0.008 | [3] -0.037 | [4] -0.016 | [5] -0.1 | [6] 0.031 | [7] 0.013 | [8] -0.014 | [9] -0.048 | [10] 0.029

Reference: the supplement of paper PMC10849652
